Construct, isoform or probe ends are uncertain for at least one entry. No signal at the amounts used counts as a negative. Tags and fusion partners may be left off the protein sequences shown. Weaker means in comparison with the reference protein, sequence or condition of that experiment.

The target of this data set is T1, PltZ (Pseudomonas protegens Pf-5) (UniProt Q4KCY3).
T1 sequence (looked up, limits assumed): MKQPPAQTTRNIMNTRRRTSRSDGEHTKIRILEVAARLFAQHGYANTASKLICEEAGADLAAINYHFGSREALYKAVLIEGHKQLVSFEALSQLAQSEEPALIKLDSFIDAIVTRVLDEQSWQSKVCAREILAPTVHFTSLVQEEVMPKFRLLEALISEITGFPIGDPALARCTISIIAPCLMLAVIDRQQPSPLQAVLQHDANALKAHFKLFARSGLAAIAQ
Put plainly: EMSA. The settings on record: EMSA: LightShift kit, 1 nM biotin-labeled probe, 20 uL, 25 C, 20 min, 5% native PAGE in 0.5x TBE at 4 C, protein stock in 20 mM Tris pH 7.0, 100 mM NaCl, recombinant protein, protein details: N-terminal 6xHis (pET28a), label: 3' biotin. (Mobility shift assays separate free from complexed probe on a gel.)

As to “TATTTTCTAATTTAAATTCAAATTGAATTTTAATTAGGCCTTGG (double strand) [pltIZ probe]”, the binding result is “binds”. Besides, the binding result (pyoluteorin (micromolar) releases the probe) is reported as “binds more weakly”. In the case of “TCGGGGCTGTTTTGCCTTTGCGGATATGCAAAGGCCTTTTGCAAAAACGGCTATTCACAAGTGCAT (double strand) [pltRL probe]”, the binding result is “no binding”.

The values are drawn from PMC8305169, “Two Pathway-Specific Transcriptional Regulators, PltR and PltZ, Coordinate Autoinduction of Pyoluteorin in Pseudomonas protegens Pf-5” (Microorganisms, 2021).
